Among the data in paper PMC6430831 are binding values, retold here.

These are yes or no findings as the source states them, for the method shown. In cells and extracts the contact can be indirect. Some results given as binding are weak or reduced against the parent protein; the word gives no strength. Tags and fused reporters may be left off the sequences shown.

For the test, the target named is T1, GEF-H1 S399A/S886A double mutant (human) (UniProt Q92974).
T1 sequence: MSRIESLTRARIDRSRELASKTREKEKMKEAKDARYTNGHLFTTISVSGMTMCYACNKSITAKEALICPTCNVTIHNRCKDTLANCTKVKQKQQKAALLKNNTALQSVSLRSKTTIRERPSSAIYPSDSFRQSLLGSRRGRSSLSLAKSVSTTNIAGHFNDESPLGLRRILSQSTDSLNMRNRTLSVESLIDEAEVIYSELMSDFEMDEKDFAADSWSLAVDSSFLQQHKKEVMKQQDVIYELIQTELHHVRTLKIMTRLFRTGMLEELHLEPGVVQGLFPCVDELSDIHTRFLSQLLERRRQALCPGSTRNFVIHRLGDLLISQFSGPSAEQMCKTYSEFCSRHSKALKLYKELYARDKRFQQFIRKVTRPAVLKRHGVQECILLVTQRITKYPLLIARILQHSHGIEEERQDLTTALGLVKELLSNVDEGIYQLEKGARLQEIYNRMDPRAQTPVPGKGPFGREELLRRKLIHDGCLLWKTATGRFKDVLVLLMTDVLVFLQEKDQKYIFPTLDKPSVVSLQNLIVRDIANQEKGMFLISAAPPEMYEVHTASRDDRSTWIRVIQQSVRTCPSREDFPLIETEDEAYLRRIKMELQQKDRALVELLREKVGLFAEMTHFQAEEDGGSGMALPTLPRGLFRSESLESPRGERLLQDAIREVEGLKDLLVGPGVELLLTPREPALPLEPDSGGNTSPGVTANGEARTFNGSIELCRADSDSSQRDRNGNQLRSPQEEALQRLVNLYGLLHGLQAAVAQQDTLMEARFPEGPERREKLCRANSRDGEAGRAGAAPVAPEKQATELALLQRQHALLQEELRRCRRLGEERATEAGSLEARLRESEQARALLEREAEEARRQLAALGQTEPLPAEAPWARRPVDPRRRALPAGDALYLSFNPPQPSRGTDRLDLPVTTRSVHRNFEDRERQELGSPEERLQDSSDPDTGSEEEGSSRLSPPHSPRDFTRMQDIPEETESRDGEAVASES
Briefly: co-IP; HEK293T cells transfected with the indicated plasmids (GEF-H1 WT or variants with IRF5, IKKε, IKKβ; with or without RIPK2 or NOD2); precipitated with anti-GEF-H1, protein G agarose; lysis buffer 1% NP-40, 20 mM Tris-HCl pH 7.4, 150 mM NaCl; partners detected by western blot. (Immunoblotting shows a protein as a band on a membrane.)

B1: human IKKε (pcDNA3-huIKKε-flag) (enzyme, UniProt Q14164 1-716)
chain: MQSTANYLWHTDDLLGQGATASVYKARNKKSGELVAVKVFNTTSYLRPREVQVREFEVLRKLNHQNIVKLFAVEETGGSRQKVLVMEYCSSGSLLSVLESPENAFGLPEDEFLVVLRCVVAGMNHLRENGIVHRDIKPGNIMRLVGEEGQSIYKLTDFGAARELDDDEKFVSVYGTEEYLHPDMYERAVLRKPQQKAFGVTVDLWSIGVTLYHAATGSLPFIPFGGPRRNKEIMYRITTEKPAGAIAGAQRRENGPLEWSYTLPITCQLSLGLQSQLVPILANILEVEQAKCWGFDQFFAETSDILQRVVVHVFSLSQAVLHHIYIHAHNTIAIFQEAVHKQTSVAPRHQEYLFEGHLCVLEPSVSAQHIAHTTASSPLTLFSTAIPKGLAFRDPALDVPKFVPKVDLQADYNTAKGVLGAGYQALRLARALLDGQELMFRGLHWVMEVLQATCRRTLEVARTSLLYLSSSLGTERFSSVAGTPEIQELKAAAELRSRLRTLAEVLSRCSQNITETQESLSSLNRELVKSRDQVHEDRSIQQIQCCLDKMNFIYKQFKKSRMRPGLGYNEEQIHKLDKVNFSHLAKRLLQVFQEECVQKYQASLVTHGKRMRVVHETRNHLRLVGCSVAACNTEAQGVQESLSKLLEELSHQLLQDRAKGAQASPPPIAPYPSPTRKDLLLHMQELCEGMKLLASDLLDNNRIIERLNRVPAPPDV
For B1, the binding entry was “binds”.
